The values below come from article PMC12741935 (Alzheimer's & Dementia, 2025).

Molecules are shown by their SMILES. This continues a long series; more values of the same kind are listed elsewhere.

The assay relates to brain proteome. The assay is described as follows: Brain proteomics (DIA LC-MS/MS) after chronic NVS-PAK1-1 100 mg/kg BID PO vs vehicle in 5xFAD mice. The format is in vivo. The procedure: A total of 91 brain samples were prepared from mice in this study and analyzed by mass spectrometry proteomics. One third of the mixed‐chopped left hemisphere tissue was homogenized in 8 M urea lysis buffer (8 M urea, 10 mM Tris, 100 mM NaH2PO4, pH 8.5) with HALT protease and phosphatase inhibitor cocktail (Thermo Fisher) and sonicated for three cycles consisting of 5 seconds of active sonication at 30% amplitude, followed by 15 seconds on ice. Samples were then centrifuged for 5 minutes at 15,000 g and the supernatant was transferred to a new tube. Protein concentration was determined by bicinchoninic acid (BCA) assay (Pierce). For protein digestion, 200 µg of each sample was aliquoted and volumes normalized with additional lysis buffer. Samples were reduced with 5 mM DTT at room temperature for 30 minutes, followed by 10 mM iodoacetamide (IAA) alkylation in the dark for another 30 minutes. Lysyl endopeptidase (Wako) at 1:25 (w/w) was added, and digestion allowed to proceed overnight. Samples were then 7‐fold diluted with 50 mM ammonium bicarbonate. Trypsin (Promega) was then added at 1:25 (w/w) and digestion proceeded overnight. The peptide solutions were acidified to a final concentration of 1% (vol/vol) FA and 0.1% (vol/vol) TFA and desalted with a 10 mg HLB column (Oasis). Each HLB column was first rinsed with 1 mL of methanol, washed with 1 mL 50% (vol/vol) acetonitrile (ACN), and equilibrated with 2 × 1 mL 0.1% (vol/vol) TFA. The samples were then loaded onto the column and washed with 2 × 1 mL 0.1% (vol/vol) TFA. Elution was performed with 0.5 mL 50% (vol/vol) ACN. Samples were split into 50 µL and 400 µL aliquots. Residuals from all samples were combined to create a global internal standard pool.
Samples were resuspended in an equal volume of loading buffer (0.1% FA, 0.03% TFA, 1% ACN) and analyzed by LC‐MS/MS. Peptide eluents (1 µg) were separated on a Water's CSH (15 cm × 150 µM internal diameter [ID] with 1.7 µm CSH resin) by a Dionex Ultimate 3000 RSLCnano (Thermo Fisher). Buffer A was water with 0.1% (vol/vol) formic acid, and buffer B was 80% (vol/vol) acetonitrile in water with 0.1% (vol/vol) FA. Elution was performed over a 30 minute gradient. The gradient was from 1% to 99% solvent B. Peptides were monitored on an Orbitrap Fusion Lumos mass spectrometer (Thermo Fisher). Each cycle consisted of one full scan (MS1) performed with an m/z range of 380 to 985 at a 60,000 resolution at standard settings and 30 data independent scans (DIA) in 1.5 seconds. The higher energy collision‐induced dissociation (HCD) tandem scans were collected at 30% collision energy with an isolation of 10 m/z, a resolution of 15,000, an AGC setting of 200% normalized AGC target, and a maximum injection time set to 40 ms.
Raw data files were converted to mzML format for downstream processing using ThermoRawFilerParser v.1.4.4.[30] The data were processed using Data‐Independent Acquisition by Neural Network (DIA‐NN) v.1.9.1.[31] A spectral library was generated using all canonical mouse proteins from UniProt and SwissProt (accessed September 24, 2024) and contaminants from the Common Repository of Adventitious Proteins (cRAP) database [https://www.thegpm.org/crap/]; these contaminant proteins were excluded from normalization and downstream analysis. DIA‐NN was run using parameters specified as follows: precursor charge was set from 1 to 4 and precursor m/z was set from 200 to 5000. Enzyme digestion was set to strict trypsin with 1 allowed missed cleavage, peptide length was set from 7 to 50, and peptide m/z was set from 150 to 3000. The maximum number of variable modifications was set to 3 and methionine oxidation was allowed as a variable modification. Cysteine carbamidomethylation was allowed as a fixed modification. MS1 and MS2 mass accuracy (in ppm) were set using autodetect and the scan window was set using autodetect. The false discovery rate (FDR) threshold was set to 1%. […]

Take `CC(C)NC(=O)N1CC[C@H](NC2=Nc3cc(F)ccc3N(CC(F)F)c3ccc(Cl)cc32)C1` [NVS‐PAK1‐1, (S)‐3‐([2‐chloro‐5‐(2,2‐difluoroethyl)‐8‐fluoro‐5H‐dibenzo[b,e][1,4]diazepin‐11‐yl]amino)‐N‐isopropylpyrrolidine‐1‐carboxamide]: the logFC_NVS.PAK1.1_vs_vehicle is on record as 0.04937 (Aak1, Young M 5xFAD brain); 0.1055 (Agpat1, Aged M 5xFAD brain); -0.1952 (Arhgdib, Young M 5xFAD brain); -0.2122 (Clu, Young F 5xFAD brain); -0.2183 (Commd10, Young F 5xFAD brain); 0.2716 (Coq3, Young F 5xFAD brain). Also, the logFC_NVS.PAK1.1_vs_vehicle is, setting by setting: (Ddb1, Young F 5xFAD brain) -0.05262; (Eef1g, Young F 5xFAD brain) -0.04894; (Faim2, Aged M 5xFAD brain) -0.292; (Fxyd1, Young F 5xFAD brain) -0.1469; (Idh3b, Young F 5xFAD brain) 0.04787; (Lnpep, Young F 5xFAD brain) -0.2014. For the same compound, the logFC_NVS.PAK1.1_vs_vehicle is reported as 0.05722 (Ndufs1.1, Young F 5xFAD brain); 0.06237 (Ndufs7, Young F 5xFAD brain); -0.0818 (Nop56, Young F 5xFAD brain); -0.07982 (Pkm, Young M 5xFAD brain); -0.04905 (Ppia, Aged F 5xFAD brain); 0.08363 (Ppm1h, Young M 5xFAD brain). Besides, the logFC_NVS.PAK1.1_vs_vehicle by setting is: (Rbbp4, Young F 5xFAD brain) -0.1313; (Septin8, Young M 5xFAD brain) -0.04435; (Trpv2, Aged F 5xFAD brain) 0.1543; (Zc3hc1, Aged M 5xFAD brain) -0.2342.
